Source: publication PMC5548797

Tests used:
[1] = target: T1, AdV protein IVa2 of HAdV-C5 (HAdV-C5) (UniProt P03271); test: co-IP; nuclear extracts of HAdV-C5-infected 293 cells immunoprecipitated with anti-IVa2, anti-33K, anti-DBP or anti-hexon antibodies (controls: normal mouse IgG, normal rabbit IgG); immunoblot with anti-E4 34K antibody
T1 sequence: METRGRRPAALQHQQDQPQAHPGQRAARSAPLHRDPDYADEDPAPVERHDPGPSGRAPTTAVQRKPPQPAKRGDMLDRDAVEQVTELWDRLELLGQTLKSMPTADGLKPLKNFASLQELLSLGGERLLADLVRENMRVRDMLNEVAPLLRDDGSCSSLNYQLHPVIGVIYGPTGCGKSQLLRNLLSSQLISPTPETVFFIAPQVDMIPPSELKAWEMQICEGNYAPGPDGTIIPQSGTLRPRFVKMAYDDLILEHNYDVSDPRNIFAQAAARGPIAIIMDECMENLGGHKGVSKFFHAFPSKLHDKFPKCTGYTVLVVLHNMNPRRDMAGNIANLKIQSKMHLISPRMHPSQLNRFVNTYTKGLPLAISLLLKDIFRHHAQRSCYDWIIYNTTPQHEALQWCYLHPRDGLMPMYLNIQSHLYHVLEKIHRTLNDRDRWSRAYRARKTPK

[2] = target: T2, L4 33K protein of HAdV-C5 (HAdV-C5) (UniProt P24940); test: as above
T2 sequence: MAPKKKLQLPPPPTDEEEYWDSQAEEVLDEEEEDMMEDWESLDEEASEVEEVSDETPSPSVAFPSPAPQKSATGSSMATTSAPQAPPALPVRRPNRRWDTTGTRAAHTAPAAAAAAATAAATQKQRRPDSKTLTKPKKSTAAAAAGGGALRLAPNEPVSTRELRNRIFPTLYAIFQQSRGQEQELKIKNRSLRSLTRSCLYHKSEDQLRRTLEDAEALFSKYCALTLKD

In the case of Adenoviral E4 34K protein of HAdV-C5, the binding [1] is reported as “binds” and the binding [2] is reported as “binds”.

No constants are given. Whether binding was seen depends on the method and setting. In cells and extracts the contact can be indirect. A result given as binding can be weak or reduced; the word gives no strength.
